Measurements as given in doi:10.1101/556266.
Substitutions are numbered along the chain they refer to. No constants are given. Whether binding was seen depends on the method and setting. Binding seen in cells or lysates may run through a third protein. For some assays here: A result given as binding can be weak or reduced; the word gives no strength. Where a sequence is shown, tags or fusion partners need not be part of it.

Assays:
[1] = target: T1, GFP-Snapin-S50A (UniProt O95295); test: co-IP
T1 sequence: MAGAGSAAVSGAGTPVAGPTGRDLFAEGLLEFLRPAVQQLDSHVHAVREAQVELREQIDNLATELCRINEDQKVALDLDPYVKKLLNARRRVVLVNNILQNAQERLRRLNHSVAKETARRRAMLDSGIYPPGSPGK

[2] = target: T2, GFP-Snapin-S50D (UniProt O95295); test: co-IP
T2 sequence: T1 sequence with A50D

binding [1]: binds
binding [2]: no binding
Substance: Dynein intermediate chain (endogenous, HEK293T) (human (endogenous in HEK293T))
